Source: the supplement of paper PMC6411743
± gives the standard deviation of the averaged measurements. The list shows a part of the results, in another mix than the full data.

Chains of the proteins cited; added tags and fusions are not shown. Lines headed by an entry give the natural chain unless they say otherwise; changes in a name come on top.
UniProt Q59H18: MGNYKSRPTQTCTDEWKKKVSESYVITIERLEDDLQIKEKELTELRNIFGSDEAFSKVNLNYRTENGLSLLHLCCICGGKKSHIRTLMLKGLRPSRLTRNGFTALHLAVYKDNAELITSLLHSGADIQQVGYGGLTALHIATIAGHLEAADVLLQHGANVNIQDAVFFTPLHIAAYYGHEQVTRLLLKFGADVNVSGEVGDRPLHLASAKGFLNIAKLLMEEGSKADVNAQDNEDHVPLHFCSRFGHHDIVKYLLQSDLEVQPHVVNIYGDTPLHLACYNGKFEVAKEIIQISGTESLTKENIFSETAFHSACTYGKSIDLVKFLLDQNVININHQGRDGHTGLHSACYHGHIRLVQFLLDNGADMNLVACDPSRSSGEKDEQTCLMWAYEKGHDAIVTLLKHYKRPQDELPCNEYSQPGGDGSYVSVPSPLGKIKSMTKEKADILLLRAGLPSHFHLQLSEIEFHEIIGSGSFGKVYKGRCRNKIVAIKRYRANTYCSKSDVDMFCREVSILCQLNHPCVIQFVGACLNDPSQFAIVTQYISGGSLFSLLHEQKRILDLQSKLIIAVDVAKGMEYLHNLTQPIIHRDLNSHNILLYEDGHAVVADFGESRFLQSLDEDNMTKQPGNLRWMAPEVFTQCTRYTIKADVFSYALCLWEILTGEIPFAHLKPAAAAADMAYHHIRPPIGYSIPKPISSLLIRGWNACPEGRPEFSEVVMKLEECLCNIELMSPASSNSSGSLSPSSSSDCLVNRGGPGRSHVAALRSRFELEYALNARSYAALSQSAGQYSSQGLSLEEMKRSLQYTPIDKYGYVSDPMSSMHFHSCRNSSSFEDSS
UniProt Q5T011: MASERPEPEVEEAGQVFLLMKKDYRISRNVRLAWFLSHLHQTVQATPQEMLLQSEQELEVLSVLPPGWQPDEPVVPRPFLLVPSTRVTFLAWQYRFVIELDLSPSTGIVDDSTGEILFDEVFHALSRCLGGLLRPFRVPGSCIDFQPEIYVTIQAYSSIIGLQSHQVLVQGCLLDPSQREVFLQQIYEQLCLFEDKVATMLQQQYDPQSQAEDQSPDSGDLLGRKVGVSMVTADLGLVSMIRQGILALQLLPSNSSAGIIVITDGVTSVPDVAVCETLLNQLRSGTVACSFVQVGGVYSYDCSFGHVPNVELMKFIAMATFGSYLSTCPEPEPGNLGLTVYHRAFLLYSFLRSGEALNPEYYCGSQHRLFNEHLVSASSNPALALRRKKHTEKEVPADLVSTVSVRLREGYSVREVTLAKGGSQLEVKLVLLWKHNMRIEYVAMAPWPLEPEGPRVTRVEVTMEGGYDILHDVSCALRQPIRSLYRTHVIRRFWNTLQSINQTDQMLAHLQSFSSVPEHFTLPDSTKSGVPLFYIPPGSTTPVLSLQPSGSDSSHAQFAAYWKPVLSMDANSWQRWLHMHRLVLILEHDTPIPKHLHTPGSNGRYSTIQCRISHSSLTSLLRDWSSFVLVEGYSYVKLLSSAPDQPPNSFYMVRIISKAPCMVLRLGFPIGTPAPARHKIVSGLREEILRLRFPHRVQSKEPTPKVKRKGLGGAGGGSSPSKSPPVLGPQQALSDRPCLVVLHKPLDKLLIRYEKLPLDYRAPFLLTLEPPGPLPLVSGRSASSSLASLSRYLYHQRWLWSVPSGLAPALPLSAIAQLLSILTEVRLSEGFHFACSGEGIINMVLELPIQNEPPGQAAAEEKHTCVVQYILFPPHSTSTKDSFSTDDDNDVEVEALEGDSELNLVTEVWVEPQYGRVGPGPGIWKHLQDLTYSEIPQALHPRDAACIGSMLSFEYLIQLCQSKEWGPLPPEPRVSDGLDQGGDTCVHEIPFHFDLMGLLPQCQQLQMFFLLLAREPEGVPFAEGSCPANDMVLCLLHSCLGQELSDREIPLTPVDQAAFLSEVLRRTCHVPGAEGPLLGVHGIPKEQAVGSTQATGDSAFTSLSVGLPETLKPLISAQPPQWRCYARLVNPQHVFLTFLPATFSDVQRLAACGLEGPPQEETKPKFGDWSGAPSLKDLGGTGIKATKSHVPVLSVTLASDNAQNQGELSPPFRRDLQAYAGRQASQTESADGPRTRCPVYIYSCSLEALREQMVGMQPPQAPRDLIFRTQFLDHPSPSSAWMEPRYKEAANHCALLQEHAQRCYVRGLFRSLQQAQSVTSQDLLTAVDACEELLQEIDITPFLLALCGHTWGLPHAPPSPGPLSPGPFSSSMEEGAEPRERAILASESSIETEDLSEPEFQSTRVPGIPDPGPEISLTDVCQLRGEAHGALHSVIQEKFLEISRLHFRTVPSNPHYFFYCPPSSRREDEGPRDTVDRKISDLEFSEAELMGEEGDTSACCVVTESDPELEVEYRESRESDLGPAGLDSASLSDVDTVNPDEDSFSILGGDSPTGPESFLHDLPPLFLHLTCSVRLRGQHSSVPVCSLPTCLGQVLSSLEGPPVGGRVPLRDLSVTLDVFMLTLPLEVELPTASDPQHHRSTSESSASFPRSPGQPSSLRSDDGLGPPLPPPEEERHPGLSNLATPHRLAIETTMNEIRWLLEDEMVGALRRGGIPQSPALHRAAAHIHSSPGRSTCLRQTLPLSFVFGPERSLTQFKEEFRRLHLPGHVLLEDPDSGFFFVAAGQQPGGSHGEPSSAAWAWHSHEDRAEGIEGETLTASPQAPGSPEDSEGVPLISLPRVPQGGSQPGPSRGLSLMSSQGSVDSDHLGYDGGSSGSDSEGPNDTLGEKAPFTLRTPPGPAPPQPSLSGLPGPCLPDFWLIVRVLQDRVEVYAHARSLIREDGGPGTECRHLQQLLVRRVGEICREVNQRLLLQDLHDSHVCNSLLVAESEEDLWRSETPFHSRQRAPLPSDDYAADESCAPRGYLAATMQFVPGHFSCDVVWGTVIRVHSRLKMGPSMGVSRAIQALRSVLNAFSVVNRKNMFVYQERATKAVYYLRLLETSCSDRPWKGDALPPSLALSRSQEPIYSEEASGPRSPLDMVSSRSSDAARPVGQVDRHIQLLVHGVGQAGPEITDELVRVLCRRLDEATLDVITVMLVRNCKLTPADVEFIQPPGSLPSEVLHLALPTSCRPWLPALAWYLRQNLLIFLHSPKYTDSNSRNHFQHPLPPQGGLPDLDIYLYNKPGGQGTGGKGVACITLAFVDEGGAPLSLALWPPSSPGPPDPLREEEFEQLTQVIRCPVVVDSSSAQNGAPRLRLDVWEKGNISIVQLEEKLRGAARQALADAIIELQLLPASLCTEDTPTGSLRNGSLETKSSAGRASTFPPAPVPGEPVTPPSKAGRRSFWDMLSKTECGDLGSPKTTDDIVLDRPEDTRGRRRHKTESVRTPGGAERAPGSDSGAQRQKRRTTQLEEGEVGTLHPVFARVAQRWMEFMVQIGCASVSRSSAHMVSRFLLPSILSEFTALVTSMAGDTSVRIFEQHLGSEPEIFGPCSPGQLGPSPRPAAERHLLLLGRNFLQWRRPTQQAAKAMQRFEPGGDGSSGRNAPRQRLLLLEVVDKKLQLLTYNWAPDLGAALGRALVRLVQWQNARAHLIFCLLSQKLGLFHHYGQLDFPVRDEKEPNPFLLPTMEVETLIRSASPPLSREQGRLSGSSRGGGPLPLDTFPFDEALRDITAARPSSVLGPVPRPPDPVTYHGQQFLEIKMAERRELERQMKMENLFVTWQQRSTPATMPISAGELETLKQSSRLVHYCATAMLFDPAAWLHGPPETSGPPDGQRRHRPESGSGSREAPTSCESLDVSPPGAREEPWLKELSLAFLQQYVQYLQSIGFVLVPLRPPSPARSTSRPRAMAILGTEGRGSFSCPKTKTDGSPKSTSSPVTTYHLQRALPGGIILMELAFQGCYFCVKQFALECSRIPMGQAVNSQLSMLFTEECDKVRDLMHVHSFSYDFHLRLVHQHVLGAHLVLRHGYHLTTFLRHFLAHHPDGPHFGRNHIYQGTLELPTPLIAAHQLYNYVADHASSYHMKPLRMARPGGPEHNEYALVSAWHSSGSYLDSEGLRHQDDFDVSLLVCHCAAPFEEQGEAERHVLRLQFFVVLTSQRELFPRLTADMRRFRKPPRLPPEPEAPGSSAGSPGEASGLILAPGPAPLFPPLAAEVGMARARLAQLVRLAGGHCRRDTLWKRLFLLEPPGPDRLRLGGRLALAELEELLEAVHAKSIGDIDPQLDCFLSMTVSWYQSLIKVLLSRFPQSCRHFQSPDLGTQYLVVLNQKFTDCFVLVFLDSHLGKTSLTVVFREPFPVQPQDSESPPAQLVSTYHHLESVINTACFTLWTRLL
UniProt Q56NI9: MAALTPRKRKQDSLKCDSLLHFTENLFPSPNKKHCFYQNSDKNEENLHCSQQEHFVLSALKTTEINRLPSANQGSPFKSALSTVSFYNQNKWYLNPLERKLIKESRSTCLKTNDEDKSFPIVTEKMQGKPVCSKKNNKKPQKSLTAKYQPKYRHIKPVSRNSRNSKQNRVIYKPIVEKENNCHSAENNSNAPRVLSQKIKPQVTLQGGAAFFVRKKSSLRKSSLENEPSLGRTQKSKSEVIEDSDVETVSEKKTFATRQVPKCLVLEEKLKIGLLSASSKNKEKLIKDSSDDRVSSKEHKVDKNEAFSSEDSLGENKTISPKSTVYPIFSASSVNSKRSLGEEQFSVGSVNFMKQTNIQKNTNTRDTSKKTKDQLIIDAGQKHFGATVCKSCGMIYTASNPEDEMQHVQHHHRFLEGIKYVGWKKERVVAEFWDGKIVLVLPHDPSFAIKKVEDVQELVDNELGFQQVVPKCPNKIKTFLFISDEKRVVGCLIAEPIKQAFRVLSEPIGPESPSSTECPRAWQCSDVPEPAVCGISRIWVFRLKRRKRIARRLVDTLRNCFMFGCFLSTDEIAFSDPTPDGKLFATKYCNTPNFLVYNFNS
UniProt Q9UKD1: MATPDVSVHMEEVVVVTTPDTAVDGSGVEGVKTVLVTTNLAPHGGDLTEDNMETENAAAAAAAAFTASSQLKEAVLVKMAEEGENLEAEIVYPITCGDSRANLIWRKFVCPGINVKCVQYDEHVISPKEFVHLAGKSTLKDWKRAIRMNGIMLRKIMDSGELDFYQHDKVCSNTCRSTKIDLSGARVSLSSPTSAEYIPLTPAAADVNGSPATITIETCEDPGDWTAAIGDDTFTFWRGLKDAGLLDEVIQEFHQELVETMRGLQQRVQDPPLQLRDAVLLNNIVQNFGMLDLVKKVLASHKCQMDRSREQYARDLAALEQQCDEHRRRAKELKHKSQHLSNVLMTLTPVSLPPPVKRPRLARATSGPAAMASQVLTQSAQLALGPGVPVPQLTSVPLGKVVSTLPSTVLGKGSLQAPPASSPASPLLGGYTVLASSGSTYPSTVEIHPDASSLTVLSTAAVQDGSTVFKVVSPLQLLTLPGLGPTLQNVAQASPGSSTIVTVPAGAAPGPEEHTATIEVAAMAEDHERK
UniProt Q15365, whole entry: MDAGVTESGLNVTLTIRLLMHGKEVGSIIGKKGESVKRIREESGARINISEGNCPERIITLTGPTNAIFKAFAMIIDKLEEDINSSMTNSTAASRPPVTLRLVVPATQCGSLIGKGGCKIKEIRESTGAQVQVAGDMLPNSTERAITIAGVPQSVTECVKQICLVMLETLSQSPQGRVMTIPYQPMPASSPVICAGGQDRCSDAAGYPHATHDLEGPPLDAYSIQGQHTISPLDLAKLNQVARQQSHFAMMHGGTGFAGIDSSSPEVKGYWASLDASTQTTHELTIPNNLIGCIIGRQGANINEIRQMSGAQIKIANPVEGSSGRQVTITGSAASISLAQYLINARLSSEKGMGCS
UniProt Q16539, whole entry: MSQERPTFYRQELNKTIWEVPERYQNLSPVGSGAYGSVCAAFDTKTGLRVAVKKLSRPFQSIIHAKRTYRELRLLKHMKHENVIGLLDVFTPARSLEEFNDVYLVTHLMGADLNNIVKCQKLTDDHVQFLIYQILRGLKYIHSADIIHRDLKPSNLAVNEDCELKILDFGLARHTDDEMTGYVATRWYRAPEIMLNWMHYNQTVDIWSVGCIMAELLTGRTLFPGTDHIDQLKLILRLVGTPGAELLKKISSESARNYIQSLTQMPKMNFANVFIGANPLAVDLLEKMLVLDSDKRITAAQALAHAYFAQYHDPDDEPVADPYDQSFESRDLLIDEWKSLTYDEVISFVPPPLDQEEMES
UniProt Q5JTJ3: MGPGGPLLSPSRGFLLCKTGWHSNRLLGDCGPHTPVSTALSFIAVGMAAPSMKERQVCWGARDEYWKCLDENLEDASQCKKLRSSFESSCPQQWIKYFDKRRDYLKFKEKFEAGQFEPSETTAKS
UniProt Q5PSV4: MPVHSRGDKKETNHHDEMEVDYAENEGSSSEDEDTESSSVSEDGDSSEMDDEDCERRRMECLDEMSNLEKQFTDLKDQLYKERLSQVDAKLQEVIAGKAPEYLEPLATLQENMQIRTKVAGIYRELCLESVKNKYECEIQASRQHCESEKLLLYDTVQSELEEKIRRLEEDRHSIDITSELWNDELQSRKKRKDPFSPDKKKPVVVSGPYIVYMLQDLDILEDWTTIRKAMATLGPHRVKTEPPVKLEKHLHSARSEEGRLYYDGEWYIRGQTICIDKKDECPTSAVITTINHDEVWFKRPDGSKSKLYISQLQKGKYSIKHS

Compound: Nc1ncnc2c1ncn2[C@@H]1O[C@H](COP(=O)(O)OP(=O)(O)NP(=O)(O)O)[C@@H](O)[C@H]1O [adenylyl imidodiphosphate]
Test: NP40-soluble protein abundance relative to vehicle (solubility fold change) (ratio); higher = more soluble protein in presence of AMP-PNP
How it was run: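 Jurkat crude lysate prepared with a Dounce homogeniser was treated at eight concentrations spanning 0.1 to 10 mM, 10 min at room temperature then 3 min at 37 °C. Solubilisation with 0.8% NP40 and benzonase and ultracentrifugation preceded TMT labelling of the supernatant for LC-MS/MS. Fold change against the detergent-processed vehicle was determined per replicate from vsn-normalised intensities, across three independent experiments.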

Target	NP40-soluble protein abundance (concentration: 1mM)	NP40-soluble protein abundance (concentration: 2mM)	NP40-soluble protein abundance (concentration: 4mM)	NP40-soluble protein abundance (concentration: 6mM)	NP40-soluble protein abundance (concentration: 8mM)	NP40-soluble protein abundance (concentration: 10mM)
UniProt Q460N5 and related entries	1.02 ± 0.02	0.993 ± 0.046	1.04 ± 0.039	0.9762 ± 0.0066	1.01 ± 0.029	0.9765 ± 0.0028
UniProt Q5SQI0 and related entries	1 ± 0.024	1 ± 0.059	0.99 ± 0.032	0.99 ± 0.027	1 ± 0.012	0.995 ± 0.029
Q59H18-1|Q59H18-3|Q59H18-4|V9GXZ4 (UniProt V9GXZ4+Q59H18)	1.01 ± 0.042	0.95 ± 0.032	1.04 ± 0.17	1.09 ± 0.014	1.029 ± 0.0037	0.982 ± 0.072
PPA1 (UniProt Q15181)	0.998 ± 0.025	0.987 ± 0.022	0.958 ± 0.027	1 ± 0.019	0.989 ± 0.021	0.989 ± 0.027
TRIP13 (UniProt Q15645)	1 ± 0.07	0.896 ± 0.085	0.975 ± 0.056	0.884 ± 0.025	0.946 ± 0.031	0.858 ± 0.034
ELAVL1 (UniProt Q15717)	0.939 ± 0.027	0.903 ± 0.043	0.934 ± 0.017	1.01 ± 0.048	1.02 ± 0.033	0.979 ± 0.031
FSCN1 (UniProt Q16658)	0.979 ± 0.0099	0.992 ± 0.027	1 ± 0.015	1.04 ± 0.045	1.02 ± 0.068	1.02 ± 0.039
Q5TH30 and related entries (UniProt Q9UGV2)	1.06 ± 0.024	1.07 ± 0.056	1.05 ± 0.042	1.02 ± 0.024	1.03 ± 0.016	1.01 ± 0.046
HSP90AA4P (UniProt Q58FG1)	0.862 ± 0.051	0.93 ± 0.039	0.878 ± 0.052	0.973 ± 0.074	0.927 ± 0.054	0.931 ± 0.064
UniProt Q52LJ0-2	0.966 ± 0.054	0.984 ± 0.034	0.985 ± 0.042	0.984 ± 0.029	0.998 ± 0.037	0.953 ± 0.048
TST (UniProt Q16762)	1.04 ± 0.04	0.997 ± 0.027	1.04 ± 0.048	1.03 ± 0.044	1.03 ± 0.088	1.01 ± 0.064
CROCC (UniProt Q5TZA2)	0.9823 ± 0.0093	1.03 ± 0.037	0.977 ± 0.032	0.9698 ± 0.0079	0.949 ± 0.013	0.932 ± 0.028
MAN2A1 (UniProt Q16706)	0.985 ± 0.012	0.938 ± 0.042	0.9353 ± 0.0082	0.96 ± 0.029	0.966 ± 0.017	0.948 ± 0.052
CMPK2 (UniProt Q5EBM0)	0.993 ± 0.016	0.972 ± 0.027	1.01 ± 0.013	0.968 ± 0.018	1 ± 0.02	0.974 ± 0.029
UniProt Q5T011 and related entries	0.882 ± 0.14	0.91 ± 0.071	0.912 ± 0.076	0.864 ± 0.16	0.809 ± 0.045	0.803 ± 0.056
UniProt Q3MHD2 and related entries	1.15 ± 0.062	1.21 ± 0.072	1.1 ± 0.07	1.08 ± 0.12	1.05 ± 0.048	1.12 ± 0.054
UniProt Q5T2E6 and related entries	0.973 ± 0.043	0.947 ± 0.037	0.945 ± 0.057	0.992 ± 0.033	1.01 ± 0.037	0.981 ± 0.045
UniProt Q16851 and related entries	0.977 ± 0.02	0.919 ± 0.051	0.962 ± 0.032	0.957 ± 0.031	0.975 ± 0.044	0.955 ± 0.06
RHEB (UniProt Q15382)	1 ± 0.033	0.987 ± 0.063	0.969 ± 0.084	1.01 ± 0.011	0.974 ± 0.047	0.962 ± 0.073
UniProt Q16512 and related entries	1.013 ± 0.01	1.01 ± 0.018	1.012 ± 0.0097	1.04 ± 0.054	1.03 ± 0.041	1.06 ± 0.038

Quoted from the results shown (two entries):
Target	NP40-soluble protein abundance (concentration: 1mM)	NP40-soluble protein abundance (concentration: 2mM)	NP40-soluble protein abundance (concentration: 4mM)	NP40-soluble protein abundance (concentration: 6mM)	NP40-soluble protein abundance (concentration: 8mM)	NP40-soluble protein abundance (concentration: 10mM)
Q59H18-1|Q59H18-3|Q59H18-4|V9GXZ4 (UniProt V9GXZ4+Q59H18)	1.01 ± 0.042	0.95 ± 0.032	1.04 ± 0.17	1.09 ± 0.014	1.029 ± 0.0037	0.982 ± 0.072
PPA1 (UniProt Q15181)	0.998 ± 0.025	0.987 ± 0.022	0.958 ± 0.027	1 ± 0.019	0.989 ± 0.021	0.989 ± 0.027

Going on with the list.

Target	NP40-soluble protein abundance (concentration: 1mM)	NP40-soluble protein abundance (concentration: 2mM)	NP40-soluble protein abundance (concentration: 4mM)	NP40-soluble protein abundance (concentration: 6mM)	NP40-soluble protein abundance (concentration: 8mM)	NP40-soluble protein abundance (concentration: 10mM)
UniProt Q1MSJ5 and related entries	1.016 ± 0.0053	1.029 ± 0.0052	0.99431 ± 0.00099	1.01 ± 0.024	1.02 ± 0.028	1.01 ± 0.011
MED1 (UniProt Q15648)	1.05 ± 0.028	1.06 ± 0.046	1.07 ± 0.048	1.07 ± 0.038	1.06 ± 0.026	1.1 ± 0.061
RALBP1 (UniProt Q15311)	0.982 ± 0.037	1.01 ± 0.024	1.03 ± 0.025	1.04 ± 0.014	1.04 ± 0.014	1.08 ± 0.011
UniProt Q4J6C6 and related entries	0.994 ± 0.033	0.959 ± 0.045	0.996 ± 0.033	0.974 ± 0.017	0.983 ± 0.021	0.959 ± 0.016
UniProt Q5HYK3 and related entries	0.968 ± 0.052	0.964 ± 0.041	0.983 ± 0.085	0.96 ± 0.058	0.97 ± 0.038	0.971 ± 0.069
UniProt Q5SWX8	0.983 ± 0.015	0.966 ± 0.042	0.9843 ± 0.0077	0.981 ± 0.042	1.02 ± 0.018	1.01 ± 0.015
UniProt Q53HC0 and related entries	0.976 ± 0.018	1.0169 ± 0.00039	0.984 ± 0.024	0.985 ± 0.03	0.9998 ± 0.0068	0.976 ± 0.019
Q5TCJ5 and related entries (UniProt Q9H3S1)	0.952 ± 0.018	0.949 ± 0.018	0.985 ± 0.016	0.969 ± 0.043	1.01 ± 0.019	1 ± 0.04
UniProt Q15599 and related entries	1.01 ± 0.046	1.05 ± 0.042	1.04 ± 0.035	1.05 ± 0.038	1.04 ± 0.038	1.03 ± 0.045
UniProt Q5T1M5 and related entries	1.01 ± 0.037	1.04 ± 0.073	0.979 ± 0.031	0.973 ± 0.045	0.925 ± 0.025	0.982 ± 0.013
UniProt Q5FWF5	1.01 ± 0.012	1.012 ± 0.0086	1 ± 0.026	1.04 ± 0.035	1.029 ± 7.1e-05	1.06 ± 0.023
UniProt Q15750 and related entries	1.03 ± 0.023	1 ± 0.017	1.03 ± 0.063	1.01 ± 0.059	1.01 ± 0.055	1.01 ± 0.052
ARL13B (UniProt Q3SXY8)	1.015 ± 0.0088	1.035 ± 0.0051	1.03 ± 0.026	1.02 ± 0.014	0.982 ± 0.04	1 ± 0.077
RARS2 (UniProt Q5T160)	0.964 ± 0.039	0.92 ± 0.061	0.963 ± 0.021	0.972 ± 0.013	0.967 ± 0.031	0.959 ± 0.048
ESCO2 (UniProt Q56NI9)	1.005 ± 0.0049	1.02 ± 0.02	1.02 ± 0.021	1.02 ± 0.014	1.03 ± 0.044	1 ± 0.031
UniProt Q1ED39	1.03 ± 0.031	1.08 ± 0.078	1.07 ± 0.028	1.101 ± 0.008	1.12 ± 0.017	1.18 ± 0.068
UniProt Q16531 and related entries	0.959 ± 0.02	0.855 ± 0.11	0.925 ± 0.013	0.921 ± 0.028	0.9579 ± 0.004	0.908 ± 0.028
UniProt Q5T6F0	0.934 ± 0.1	0.994 ± 0.0043	1.01 ± 0.08	0.975 ± 0.039	0.9429 ± 0.0043	0.929 ± 0.036
UniProt Q5T5Y3 and related entries	1.04 ± 0.036	1.06 ± 0.052	1.05 ± 0.03	0.996 ± 0.033	1 ± 0.029	1 ± 0.023
DNAL1 (UniProt Q4LDG9)	0.981 ± 0.029	1.05 ± 0.013	0.988 ± 0.078	0.943 ± 0.048	0.932 ± 0.029	0.913 ± 0.066

Target	NP40-soluble protein abundance (concentration: 1mM)	NP40-soluble protein abundance (concentration: 2mM)	NP40-soluble protein abundance (concentration: 4mM)	NP40-soluble protein abundance (concentration: 6mM)	NP40-soluble protein abundance (concentration: 8mM)	NP40-soluble protein abundance (concentration: 10mM)
UniProt Q5TCQ9-4	0.99 ± 0.012	1 ± 0.012	1.02 ± 0.031	1.002 ± 0.0059	1 ± 0.014	0.982 ± 0.016
UniProt Q4AE62 and related entries	0.99 ± 0.033	0.9546 ± 0.0082	0.966 ± 0.014	0.972 ± 0.0099	0.991 ± 0.01	0.9608 ± 0.0068
SURF2 (UniProt Q15527)	1.02 ± 0.057	1.06 ± 0.086	0.997 ± 0.058	1.04 ± 0.11	1.08 ± 0.066	1.09 ± 0.053
UniProt Q5T0F9-2	1.05 ± 0.055	1.09 ± 0.026	1.09 ± 0.033	1.06 ± 0.023	1.05 ± 0.012	1.08 ± 0.035
UniProt Q15555 and related entries	1.04 ± 0.036	1.08 ± 0.075	0.991 ± 0.033	0.995 ± 0.016	0.968 ± 0.042	0.977 ± 0.073
C9orf64 (UniProt Q5T6V5)	0.982 ± 0.041	0.935 ± 0.063	1 ± 0.02	0.937 ± 0.025	0.98 ± 0.016	0.937 ± 0.028
SF3A1 (UniProt Q15459)	1.02 ± 0.022	1.05 ± 0.05	1.02 ± 0.014	1.07 ± 0.031	1.07 ± 0.017	1.09 ± 0.031
AMOT (UniProt Q4VCS5)	1.01 ± 0.037	1.05 ± 0.072	1.03 ± 0.037	1.02 ± 0.03	0.991 ± 0.025	1.03 ± 0.036
Q5JTV1 and related entries (UniProt Q9UKD1)	1.02 ± 0.019	1.03 ± 0.029	1.039 ± 0.0083	0.9994 ± 0.0089	0.984 ± 0.048	0.978 ± 0.047
UniProt Q15365	1.031 ± 0.0057	1.04 ± 0.038	1.04 ± 0.033	1 ± 0.02	1.01 ± 0.014	1.01 ± 0.03
UniProt Q5T4S7 and related entries	0.962 ± 0.07	0.919 ± 0.095	0.943 ± 0.087	0.9 ± 0.1	0.899 ± 0.1	0.885 ± 0.13
UniProt Q16539 and related entries	1.01 ± 0.037	0.932 ± 0.075	0.977 ± 0.026	0.971 ± 0.037	1 ± 0.059	0.931 ± 0.025
ACSF3 (UniProt Q4G176)	0.942 ± 0.055	0.834 ± 0.084	0.949 ± 0.051	1.02 ± 0.091	1.06 ± 0.11	0.956 ± 0.058
UniProt Q3KQU3-4|Q3KQU3	1.08 ± 0.018	1.16 ± 0.09	1.13 ± 0.035	1.065 ± 0.0046	1.03 ± 0.047	1.07 ± 0.043
UniProt Q5JTJ3 and related entries	1.02 ± 0.015	1.04 ± 0.081	0.991 ± 0.038	0.97 ± 0.043	0.943 ± 0.016	0.966 ± 0.046
UniProt Q16864 and related entries	1.02 ± 0.035	1.04 ± 0.037	0.983 ± 0.055	0.95 ± 0.0046	0.95 ± 0.015	0.909 ± 0.045
UniProt Q5PSV4 and related entries	1.06 ± 0.023	1 ± 0.013	0.978 ± 0.036	0.9781 ± 0.008	0.9869 ± 0.0096	0.9788 ± 0.0045
UniProt Q2TAY7	0.996 ± 0.05	0.927 ± 0.093	1.03 ± 0.024	1.09 ± 0.043	1.17 ± 0.045	1.14 ± 0.036
FAM102B (UniProt Q5T8I3)	1.02 ± 0.046	0.998 ± 0.032	0.984 ± 0.02	1.01 ± 0.031	1.01 ± 0.017	0.9907 ± 0.0067
UniProt Q5TC82 and related entries	0.995 ± 0.03	1.01 ± 0.033	0.999 ± 0.039	1 ± 0.036	1.02 ± 0.024	0.971 ± 0.032
